For this assay, the target named is GFP-tagged human PRR14 Tantalus domain (455–517), wild type (human) (UniProt Q9BWN1). Nature of the assay: co-IP; GFP-Trap magnetic agarose beads (GFP nanobody) added to lysates of HeLa cells co-transfected with GFP-Tantalus (bait) and HA-B56α (prey); lysis in 10 mM Tris-HCl pH 7.5, 150 mM NaCl, 0.5 mM EDTA, 0.5% NP-40; 1 h at 4°C; anti-HA western blot; the paper calls it a pulldown. On the technique in general: In western blotting, separated proteins are transferred to a membrane and probed.

Amino acid sequences for entries named in this document (tags omitted). A change or cut given only in a name is not applied to a line headed by its entry. Residues count along the entry.
UniProt Q9BWN1, residues 455-517: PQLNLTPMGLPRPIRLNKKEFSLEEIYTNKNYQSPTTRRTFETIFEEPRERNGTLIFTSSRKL
UniProt Q15172: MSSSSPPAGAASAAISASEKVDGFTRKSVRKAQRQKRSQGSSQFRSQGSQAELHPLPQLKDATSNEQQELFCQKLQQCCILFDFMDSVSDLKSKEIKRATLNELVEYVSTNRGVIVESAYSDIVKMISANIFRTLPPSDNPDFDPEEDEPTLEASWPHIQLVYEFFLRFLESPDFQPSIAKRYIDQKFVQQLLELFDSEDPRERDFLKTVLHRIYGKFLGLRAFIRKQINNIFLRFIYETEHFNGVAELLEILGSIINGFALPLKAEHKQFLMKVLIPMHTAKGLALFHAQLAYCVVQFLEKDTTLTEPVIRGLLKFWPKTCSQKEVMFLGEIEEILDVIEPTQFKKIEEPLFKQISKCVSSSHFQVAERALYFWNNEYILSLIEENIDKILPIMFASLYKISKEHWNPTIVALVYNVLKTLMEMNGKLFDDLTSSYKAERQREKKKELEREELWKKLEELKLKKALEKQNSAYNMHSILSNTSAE

These are yes or no findings as the source states them, for the method shown. In cells and extracts the contact can be indirect.

Consider “HA-tagged human PP2A B56α with binding pocket mutations (R222E, R226E) (from UniProt Q15172)”, for which the binding entry is on record as “no binding”.

The values above are taken from publication PMC7272351.
